Reference: patent US12729225B2, “Non-canonical SWI/SNF complex and uses thereof” (Dana-Farber Cancer Institute, Inc., priority 2018, dated 2026)

B1: ISG20L2 (protein, UniProt Q9H9L3 1-353, looked up)
Interferon-stimulated 20 kDa …: MSTLLLNLDFGEPPPKKALEGNAKHRNFVKKRRLLERRGFLSKKNQPPSKAPKLHSEPSKKGETPTVDGTWKTPSFPKKKTAASSNGSGQPLDKKAAVSWLTPAPSKKADSVAAKVDLLGEFQSALPKINSHPTRSQKKSSQKKSSKKNHPQKNAPQNSTQAHSENKCSGASQKLPRKMVAIDCEMVGTGPKGHVSSLARCSIVNYNGDVLYDEYILPPCHIVDYRTRWSGIRKQHMVNATPFKIARGQILKILTGKIVVGHAIHNDFKALQYFHPKSLTRDTSHIPPLNRKADCPENATMSLKHLTKKLLNRDIQVGKSGHSSVEDAQATMELYKLVEVEWEEHLARNPPTD
B2: ALDH2 (protein, UniProt P05091 18-517, looked up)
Aldehyde dehydrogenase, …: SAAATQAVPAPNQQPEVFCNQIFINNEWHDAVSRKTFPTVNPSTGEVICQVAEGDKEDVDKAVKAARAAFQLGSPWRRMDASHRGRLLNRLADLIERDRTYLAALETLDNGKPYVISYLVDLDMVLKCLRYYAGWADKYHGKTIPIDGDFFSYTRHEPVGVCGQIIPWNFPLLMQAWKLGPALATGNVVVMKVAEQTPLTALYVANLIKEAGFPPGVVNIVPGFGPTAGAAIASHEDVDKVAFTGSTEIGRVIQVAAGSSNLKRVTLELGGKSPNIIMSDADMDWAVEQAHFALFFNQGQCCCAGSRTFVQEDIYDEFVERSVARAKSRVVGNPFDSKTEQGPQVDETQFKKILGYINTGKQEGAKLLCGGGIAADRGYFIQPTVFGDVQDGMTIAKEEIFGPVMQILKFKTIEEVVGRANNSTYGLAAAVFTKDLDKANYLSQALQAGTVWVNCYDVFGAQSPFGGYKMSGSGRELGEYGLQAYTEVKTVTVKVPQKNS
B3: DDX24 (protein, UniProt Q9GZR7 1-859, looked up)
ATP-dependent RNA helicase …: MKLKDTKSRPKQSSCGKFQTKGIKVVGKWKEVKIDPNMFADGQMDDLVCFEELTDYQLVSPAKNPSSLFSKEAPKRKAQAVSEEEEEEEGKSSSPKKKIKLKKSKNVATEGTSTQKEFEVKDPELEAQGDDMVCDDPEAGEMTSENLVQTAPKKKKNKGKKGLEPSQSTAAKVPKKAKTWIPEVHDQKADVSAWKDLFVPRPVLRALSFLGFSAPTPIQALTLAPAIRDKLDILGAAETGSGKTLAFAIPMIHAVLQWQKRNAAPPPSNTEAPPGETRTEAGAETRSPGKAEAESDALPDDTVIESEALPSDIAAEARAKTGGTVSDQALLFGDDDAGEGPSSLIREKPVPKQNENEEENLDKEQTGNLKQELDDKSATCKAYPKRPLLGLVLTPTRELAVQVKQHIDAVARFTGIKTAILVGGMSTQKQQRMLNRRPEIVVATPGRLWELIKEKHYHLRNLRQLRCLVVDEADRMVEKGHFAELSQLLEMLNDSQYNPKRQTLVFSATLTLVHQAPARILHKKHTKKMDKTAKLDLLMQKIGMRGKPKVIDLTRNEATVETLTETKIHCETDEKDFYLYYFLMQYPGRSLVFANSISCIKRLSGLLKVLDIMPLTLHACMHQKQRLRNLEQFARLEDCVLLATDVAARGLDIPKVQHVIHYQVPRTSEIYVHRSGRTARATNEGLSLMLIGPEDVINFKKIYKTLKKDEDIPLFPVQTKYMDVVKERIRLARQIEKSEYRNFQACLHNSWIEQAAAALEIELEEDMYKGGKADQQEERRRQKQMKVLKKELRHLLSQPLFTESQKTKYPTQSGKPPLLVSAPSKSESALSCLSKQKKKKTKKPKEPQPEQPQPSTSAN
B4: DNAJC11 (protein, UniProt Q9NVH1 2-559, looked up)
DnaJ homolog subfamily C …: ATALSEEELDNEDYYSLLNVRREASSEELKAAYRRLCMLYHPDKHRDPELKSQAERLFNLVHQAYEVLSDPQTRAIYDIYGKRGLEMEGWEVVERRRTPAEIREEFERLQREREERRLQQRTNPKGTISVGVDATDLFDRYDEEYEDVSGSSFPQIEINKMHISQSIEAPLTATDTAILSGSLSTQNGNGGGSINFALRRVTSAKGWGELEFGAGDLQGPLFGLKLFRNLTPRCFVTTNCALQFSSRGIRPGLTTVLARNLDKNTVGYLQWRWGIQSAMNTSIVRDTKTSHFTVALQLGIPHSFALISYQHKFQDDDQTRVKGSLKAGFFGTVVEYGAERKISRHSVLGAAVSVGVPQGVSLKVKLNRASQTYFFPIHLTDQLLPSAMFYATVGPLVVYFAMHRLIIKPYLRAQKEKELEKQRESAATDVLQKKQEAESAVRLMQESVRRIIEAEESRMGLIIVNAWYGKFVNDKSRKSEKVKVIDVTVPLQCLVKDSKLILTEASKAGLPGFYDPCVGEEKNLKVLYQFRGVLHQVMVLDSEALRIPKQSHRIDTDG
B5: UTP18 (protein, UniProt Q9Y5J1 1-556, looked up)
U3 small nucleolar …: MPPERRRRMKLDRRTGAKPKRKPGMRPDWKAGAGPGGPPQKPAPSSQRKPPARPSAAAAAIAVAAAEEERRLRQRNRLRLEEDKPAVERCLEELVFGDVENDEDALLRRLRGPRVQEHEDSGDSEVENEAKGNFPPQKKPVWVDEEDEDEEMVDMMNNRFRKDMMKNASESKLSKDNLKKRLKEEFQHAMGGVPAWAETTKRKTSSDDESEEDEDDLLQRTGNFISTSTSLPRGILKMKNCQHANAERPTVARISSVQFHPGAQIVMVAGLDNAVSLFQVDGKTNPKIQSIYLERFPIFKACFSANGEEVLATSTHSKVLYVYDMLAGKLIPVHQVRGLKEKIVRSFEVSPDGSFLLINGIAGYLHLLAMKTKELIGSMKINGRVAASTFSSDSKKVYASSGDGEVYVWDVNSRKCLNRFVDEGSLYGLSIATSRNGQYVACGSNCGVVNIYNQDSCLQETNPKPIKAIMNLVTGVTSLTFNPTTEILAIASEKMKEAVRLVHLPSCTVFSNFPVIKNKNISHVHTMDFSPRSGYFALGNEKGKALMYRLHHYSDF
B6: WDR6 (protein, UniProt Q9NNW5 1-1121, looked up)
tRNA …: MDALEDYVWPRATSELILLPVTGLECVGDRLLAGEGPDVLVYSLDFGGHLRMIKRVQNLLGHYLIHGFRVRPEPNGDLDLEAMVAVFGSKGLRVVKISWGQGHFWELWRSGLWNMSDWIWDARWLEGNIALALGHNSVVLYDPVVGCILQEVPCTDRCTLSSACLIGDAWKELTIVAGAVSNQLLVWYPATALADNKPVAPDRRISGHVGIIFSMSYLESKGLLATASEDRSVRIWKVGDLRVPGGRVQNIGHCFGHSARVWQVKLLENYLISAGEDCVCLVWSHEGEILQAFRGHQGRGIRAIAAHERQAWVITGGDDSGIRLWHLVGRGYRGLGVSALCFKSRSRPGTLKAVTLAGSWRLLAVTDTGALYLYDVEVKCWEQLLEDKHFQSYCLLEAAPGPEGFGLCAMANGEGRVKVVPINTPTAAVDQTLFPGKVHSLSWALRGYEELLLLASGPGGVVACLEISAAPSGKAIFVKERCRYLLPPSKQRWHTCSAFLPPGDFLVCGDRRGSVLLFPSRPGLLKDPGVGGKARAGAGAPVVGSGSSGGGNAFTGLGPVSTLPSLHGKQGVTSVTCHGGYVYTTGRDGAYYQLFVRDGQLQPVLRQKSCRGMNWLAGLRIVPDGSMVILGFHANEFVVWNPRSHEKLHIVNCGGGHRSWAFSDTEAAMAFAYLKDGDVMLYRALGGCTRPHVILREGLHGREITCVKRVGTITLGPEYGVPSFMQPDDLEPGSEGPDLTDIVITCSEDTTVCVLALPTTTGSAHALTAVCNHISSVRAVAVWGIGTPGGPQDPQPGLTAHVVSAGGRAEMHCFSIMVTPDPSTPSRLACHVMHLSSHRLDEYWDRQRNRHRMVKVDPETRYMSLAVCELDQPGLGPLVAAACSDGAVRLFLLQDSGRILQLLAETFHHKRCVLKVHSFTHEAPNQRRRLLLCSAATDGSLAFWDLTTMLDHDSTVLEPPVDPGLPYRLGTPSLTLQAHSCGINSLHTLPTREGHHLVASGSEDGSLHVFVLAVEMLQLEEAVGEAGLVPQLRVLEEYSVPCAHAAHVTGLKILSPSIMVSASIDQRLTFWRLGHGEPTFMNSTVFHVPDVADMDCWPVSPEFGHRCALGGQGLEVYNWYD
B7: SLC25A24 (protein, UniProt Q6NUK1 1-477, looked up)
Mitochondrial adenyl …: MLRWLRDFVLPTAACQDAEQPTRYETLFQALDRNGDGVVDIGELQEGLRNLGIPLGQDAEEKIFTTGDVNKDGKLDFEEFMKYLKDHEKKMKLAFKSLDKNNDGKIEASEIVQSLQTLGLTISEQQAELILQSIDVDGTMTVDWNEWRDYFLFNPVTDIEEIIRFWKHSTGIDIGDSLTIPDEFTEDEKKSGQWWRQLLAGGIAGAVSRTSTAPLDRLKIMMQVHGSKSDKMNIFGGFRQMVKEGGIRSLWRGNGTNVIKIAPETAVKFWAYEQYKKLLTEEGQKIGTFERFISGSMAGATAQTFIYPMEVMKTRLAVGKTGQYSGIYDCAKKILKHEGLGAFYKGYVPNLLGIIPYAGIDLAVYELLKSYWLDNFAKDSVNPGVMVLLGCGALSSTCGQLASYPLALVRTRMQAQAMLEGSPQLNMVGLFRRIISKEGIPGLYRGITPNFMKVLPAVGISYVVYENMKQTLGVTQK
B8: EEF1D (protein, UniProt P29692 2-281, looked up)
Elongation factor 1-delta: ATNFLAHEKIWFDKFKYDDAERRFYEQMNGPVAGASRQENGASVILRDIARARENIQKSLAGSSGPGASSGTSGDHGELVVRIASLEVENQSLRGVVQELQQAISKLEARLNVLEKSSPGHRATAPQTQHVSPMRQVEPPAKKPATPAEDDEDDDIDLFGSDNEEEDKEAAQLREERLRQYAEKKAKKPALVAKSSILLDVKPWDDETDMAQLEACVRSIQLDGLVWGASKLVPVGYGIRKLQIQCVVEDDKVGTDLLEEEITKFEEHVQSVDIAAFNKI
B9: POLDIP3 (protein, UniProt Q9BY77 2-421, looked up)
Polymerase delta-interacting …: ADISLDELIRKRGAAAKGRLNARPGVGGVRSRVGIQQGLLSQSTRTATFQQRFDARQKIGLSDARLKLGVKDAREKLLQKDARFRIKGKVQDAREMLNSRKQQTTVPQKPRQVADAREKISLKRSSPAAFINPPIGTVTPALKLTKTIQVPQQKAMAPLHPHPAGMRINVVNNHQAKQNLYDLDEDDDGIASVPTKQMKFAASGGFLHHMAGLSSSKLSMSKALPLTKVVQNDAYTAPALPSSIRTKALTNMSRTLVNKEEPPKELPAAEPVLSPLEGTKMTVNNLHPRVTEEDIVELFCVCGALKRARLVHPGVAEVVFVKKDDAITAYKKYNNRCLDGQPMKCNLHMNGNVITSDQPILLRLSDSPSMKKESELPRRVNSASSSNPPAEVDPDTILKALFKSSGASVTTQPTEFKIKL
B10: SFXN2 (protein, UniProt Q96NB2 1-322, looked up)
Sideroflexin-2: MEADLSGFNIDAPRWDQRTFLGRVKHFLNITDPRTVFVSERELDWAKVMVEKSRMGVVPPGTQVEQLLYAKKLYDSAFHPDTGEKMNVIGRMSFQLPGGMIITGFMLQFYRTMPAVIFWQWVNQSFNALVNYTNRNAASPTSVRQMALSYFTATTTAVATAVGMNMLTKKAPPLVGRWVPFAAVAAANCVNIPMMRQQELIKGICVKDRNENEIGHSRRAAAIGITQVVISRITMSAPGMILLPVIMERLEKLHFMQKVKVLHAPLQVMLSGCFLIFMVPVACGLFPQKCELPVSYLEPKLQDTIKAKYGELEPYVYFNKGL

System: mSWI/SNF complexes
Assay: mSWI/SNF complex purification with HA-tagged baits and mass spectrometry (peptide counts)
Set-up: species or system human
Details: 293_HA-BRD7 bait purification, mass spectrometry; for Total: total peptide count per identified protein; for Unique: unique peptide count per identified protein

Molecule	Total	Unique
B1	1	1
B2	1	1
B3	1	1
B4	1	1
B5	1	1
B6	1	1
B7	1	1
B8	1	1
B9	1	1
B10	1	1
